From US20050037420A1 (published 2005)
Changes are numbered by the printed parent chain. Results are given in words; binding and its absence hold for the method and conditions named. Some results given as binding are weak or reduced against the parent protein; the word gives no strength.

Chains of the proteins cited; added tags and fusions are not shown.
UniProt P36292: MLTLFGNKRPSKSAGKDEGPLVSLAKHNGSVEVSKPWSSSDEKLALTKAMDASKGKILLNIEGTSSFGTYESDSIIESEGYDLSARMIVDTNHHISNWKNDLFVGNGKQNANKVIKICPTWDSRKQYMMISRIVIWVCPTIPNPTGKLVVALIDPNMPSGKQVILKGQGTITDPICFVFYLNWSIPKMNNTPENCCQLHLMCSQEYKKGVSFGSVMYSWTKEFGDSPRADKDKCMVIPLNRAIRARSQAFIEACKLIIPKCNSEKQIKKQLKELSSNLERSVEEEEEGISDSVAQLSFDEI

Tests used:
[1] = molecular target: NSM protein from inclusion bodies (Tomato Spotted Wilt Virus) (UniProt P36292); experiment: indirect ELISA, mini-scale expressed soluble scFv
[2] = molecular target: NSM protein from inclusion bodies (Tomato Spotted Wilt Virus) (UniProt P36292); experiment: ELISA of bacterially expressed soluble scFvs; target told as either form of NSM
[3] = molecular target: NSM protein from inclusion bodies (Tomato Spotted Wilt Virus) (UniProt P36292); experiment: indirect ELISA, large-scale purified soluble scFv (FIG. 5A); told to react more strongly with this form than with soluble NSM
[4] = molecular target: full-length NSM protein (putative movement protein of Tomato Spotted Wilt Virus) obtained from the IMPACT expression system (Tomato Spotted Wilt Virus) (UniProt P36292); experiment: capture ELISA, soluble NSM captured by rabbit polyclonal antibodies (FIG. 5B)
[5] = molecular target: full-length NSM protein (putative movement protein of Tomato Spotted Wilt Virus) obtained from the IMPACT expression system (Tomato Spotted Wilt Virus) (UniProt P36292); experiment: capture ELISA, soluble NSM captured by rabbit polyclonal antibodies (FIG. 5B); told to react more strongly with soluble NSM than with NSM from inclusion bodies
[6] = molecular target: NSM protein from inclusion bodies (Tomato Spotted Wilt Virus) (UniProt P36292); experiment: indirect ELISA, large-scale purified soluble scFv (FIG. 5A); told to react less strongly with this form than with soluble NSM
[7] = molecular target: NSM protein from inclusion bodies (Tomato Spotted Wilt Virus) (UniProt P36292); experiment: indirect ELISA, large-scale purified soluble scFv (FIG. 5A)

Measured: binding

B1: scFv N12 (scFv)
scFv: AVTLDESGGGLQTPGGGLSLVCKASGFDFSSYDMVWVRQAPGKGLEWVAGISSGSGPNYGAAVKGRATISRDNGQSTVRLQLNNLRAEDTATYYCAKNEGADWCGHYYCSVAYIDAWGHGTEVTVSSGSTSGSGKPGPGEGSTKGAPALTQPSSVSANPGETVKITCSGGSGDHYGWFQQKSPGSAPVTVIYNNDNRPSDIPSRFSGSKSGSTHTLTITGVQVEDEAVYFCGNRDSSAGIFGAGTTLTVLGQP
notes: Soluble scFv, mini-scale (pHEN4II, c-myc tag) or large-scale (pTMZ1, IMAC purified) from E. coli; also called clone N12; not shown: C-terminal c-myc and his-6 tags from the expression vector
binds: [1] | [2] | [3] | [4]

B2: scFv N5 (scFv)
scFv: B1 scFv with G56V, N193K, D195E
notes: Soluble scFv, mini-scale (pHEN4II, c-myc tag) or large-scale (pTMZ1, IMAC purified) from E. coli; also called clone N5; not shown: C-terminal c-myc and his-6 tags from the expression vector
binds: [1] | [2] | [3] | [4]

B3: scFv N3 (scFv)
scFv: AVTLDESGGGLQTPGGGLSLVCKASGFSFSSYSMGWVRQAPGKGLEWVAGIGSSVIRTYYAPAVKGRATIPRDNGQSTVRLQLNDLRAEDTGTYYCAKESGSGKWFSIGQIDAWGHGTEVTVSSGSTSGSGKPGPGEGSTKGAPALTQPSSVSANPGGTVQITCSGGSGSYGWFQQKSPGSAPVTVIYSSDKRPSDIPSRFSGSKSGSTGTLTITGVQADDEAVYFCGSADSSHLGIFGAGTTLTVLGQP
notes: Soluble scFv, mini-scale (pHEN4II, c-myc tag) or large-scale (pTMZ1, IMAC purified) from E. coli; also called clone N3; not shown: C-terminal c-myc and his-6 tags from the expression vector
binds: [1] | [2] | [5] | [6]

B4: scFv N10 (scFv)
scFv: B3 scFv with S170N
notes: Soluble scFv, mini-scale (pHEN4II, c-myc tag) or large-scale (pTMZ1, IMAC purified) from E. coli; also called clone N10; not shown: C-terminal c-myc and his-6 tags from the expression vector
binds: [1] | [2] | [4] | [7]
